PubChem BioAssay AID1671195, Yale University | 2021

- Aim: 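Regulators of LDL receptor activity judged by labelled LDL uptake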 (primary screen)
- Cells: human Huh7 hepatoma cells
- Reagents: siRNA pool against human genes, 18 nM
- Time to read-out: about 2 to 2.5 days of knockdown, then 8 h LDL uptake
- Treatment: DiI-labelled LDL at 30 µg/ml for 8 h, in lipoprotein-deficient serum medium
- Measurement: 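Per-cell DiI-LDL intensity by automated imaging; well means scaled to the plate median and given as a robust z-score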
- Direction: robust z-score: higher = more LDL uptake after knockdown
- Rule for the call: 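Active when two or more replicates show a robust z-score above 2 or below -2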
Here is a random part of about 22,000 deposited reagents. About 1,510 of them (6.9%) count as active. 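Active includes knockdowns raising or lowering LDL uptake; positive z-scores mean more uptake, negative mean less.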 Unmarked entries are inactive.

gene knocked down	robust z-score, replicate 1	robust z-score, replicate 2	robust z-score, replicate 3
SARDH	2.36 (active)	2.31	2.01
MAGEA10	1.06	0.337	0.358
MOSPD2	-0.66	0.329	-0.412
REV1	-0.0374	0.254	0.293
FARP1	0.926	0.372	-0.527
PRPF38A	0.241	-0.458	0.653
PAK1IP1	4.4	1.44	0.83
FERRY3	-0.285	-1.21	0.311
S100A13	-0.399	-0.238	-0.542
ICOSLG	0.591	0.0497	-0.29
GRIPAP1	-1.35	-0.198	-0.089
LRIG3	-1.3	-1.09	-1.19
UVSSA	0.862	-0.564	-0.875
LINC00466	2.05 (active)	2.81	2.11
COMP	0.801	1.52	1.06
STX18	-0.635	0.837	0.591
WAPL	1.13	-0.969	1.26
LECT2	0.901	0.161	-0.00965
SEPSECS	-1.29	-0.629	-1.53
STK26	0.813	0.724	0.00184
KDM1A	-0.506	-0.686	-0.972
PRMT3	1.01	1.07	1.03
TERF1P5	0.584	0.652	0.594
SCML4	-0.0596	1.33	-0.122
PIGY	-0.29	-0.0581	-0.594
AARSD1	-0.33	0.0353	0.0977
FYB1	0.0764	-0.67	-0.106
TREH	0.11	1.22	-0.359
LOC440474 (retired record)	-1.42	-1.65	1.7
RPS4Y1	1.19	1.74	3.16
ANKRD46	0.36	0.174	0.105
PHLPP1	1.11	1.12	0.266
H4C8	1.34	1.96	1.57
PHEX	-0.115	-0.335	-0.0854
LRFN4	0.275	0.481	-0.333
INTS6L	0.0394	-0.225	-0.41
GDF10	0.754	0.67	1.01
TACSTD2	0.428	0.3	0.553
LOC441792 (retired record)	-0.321	-0.00527	0.147
MVB12B	0.175	-0.0921	0.0315
ORMDL2	1.69	-0.0912	1.43
TAF1C	2.31	1.24	0.925
LOC130063 (retired record)	0.179	-1.44	-0.612
BLCAP	1.66	3.57	0.934
LOC390468 (retired record)	-0.546	-0.198	-0.758
PIK3C2B	0.528	0.802	0.324
CLEC2L	-0.709	-0.212	0.075
LOC441837 (retired record)	-0.674	-0.923	-0.722
LOC389268 (retired record)	1.84 (active)	2.04	3.31
TTC7B	0.298	0.512	0.433
LOC441544 (retired record)	-1.53	-1.68	-1.37
EPB41L1	-0.527	-0.105	-0.484
B3GNT2	-1.48	-0.0348	-1.69
KMT2D	-0.366	-1.22	-0.869
ITGB5	0.705	-1.14	-1
NKX2-5	1.03	0.378	1.83
LINC00114	0.207	0.502	0.839
TOX4P1	1.11	1.54	1.87
ZMYND15	-1.31	-0.575	-1.2
NKX1-2	-0.453	-0.393	-0.317
CLN3	1.37	1.38	1
CDH12	-0.704	-1.03	-0.917
CFAP45	2.8 (active)	1.12	2.3
LOC401449 (retired record)	-1.24	-2.22	-1.04
MET	0.294	-0.796	-1.2
NUP160	-1.27	1.14	-0.465
SPATA31A7	0.34	1.35	2.01
DDAH1	0.199	-0.204	-0.454

Called active, of those listed so far:
gene knocked down	robust z-score, replicate 1	robust z-score, replicate 2	robust z-score, replicate 3
SARDH	2.36 (active)	2.31	2.01
LINC00466	2.05 (active)	2.81	2.11
LOC389268 (retired record)	1.84 (active)	2.04	3.31
CFAP45	2.8 (active)	1.12	2.3
